# In PubChem BioAssay AID1347423 (Functional Genomics Laboratory (NCATS/FGL), 2020):
# In all, about 52,000 sequences went through this assay and about 210 (0.4%) were called active.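 Rule for the calls: active = gene whose silencing raises cell survival under the drug, median off-target-corrected z-score across its silencing RNAs 2 or more; inactive = the rest.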 Some of the results follow.
# Assay: Resistance to Poly (ADP-Ribose) Polymerase inhibitor: Gene Identification via Genome-wide siRNA Screen
# Details: mouse BRCA2 R2336H ES cells, olaparib, CellTiter-Glo viability; hits give high values
# How it was run: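 Mouse BRCA2 R2336H ES cells were reverse-transfected with siRNA (20 nM final), treated at 48 h with 500 nM olaparib, and read by CellTiter-Glo after 72 h. Scores: MAD-based z per siRNA, median per gene, seed off-target correction.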
row,Sequence,z-score
1,GUAGAGUGAUGAGAGGCCUTT against V1rc4,inactive: 0.244
2,GCCUCCACAUAAGAAGCUGTT against 1600019O04Rik,inactive: 0.757
3,CCUAGCUAUGCUUUUGGCATT against Fkbp4,inactive: 1.41
4,GCCCGUAUAGGUAUUGGUCTT against Mpg,inactive: -1.36
5,GGUAAUUAUCUUGUUGUCATT against Sacm1l,inactive: 0.438
6,GGGACAAAUUGUCCAAAUGTT against Trpc4ap,inactive: 0.907
7,GCAAAUCACCUACAAAAACTT against Zfp326,inactive: 0.526
8,GGAAAUGAGAGCAUCCAUUTT against Cndp2,inactive: 0.189
9,GCUUUUUCUCUUUGCACUGTT against Olfr826,inactive: -0.363
10,GUCUAUCUUCAGCACAAACTT against Klrc3,inactive: 0.128
11,GGCAUAUAUACAUGCCUGCTT against V1ri2,inactive: 0.309
12,GGAAACUUAUCCCUACUCATT against Tal2,inactive: 0.322
13,GGAUAUUAUGUCUUUGCUATT against 2810417D08Rik,inactive: -1.53
14,CGGAUAUUUACGAACUUACTT against Pitpnb,inactive: 0.466
15,GGGCUUGGAGAGAAAACCATT against Rnut1,inactive: 1.74
16,GGGAGCCAUUUUUACAGACTT against Gpr120,inactive: -0.477
17,GGCCAUCCGCAUUUUUUCCTT against Rkhd3,inactive: 0.51
18,GUGCUCUAUGUCUUCACUGTT against Ltb4r2,inactive: -0.287
19,GCACGGAAUUGUUGAGCUGTT against Maff,inactive: -0.469
20,ACGACCUAUACCUCAGACCTT against Cebpd,inactive: -0.35
21,GCACAUGCCAUACAACCAUTT against Fads1,inactive: 0.615
22,GGAACAGAAAUUCUAUGAGTT against D830007E07Rik,inactive: 0.946
23,GCUGGAAAGUAGUUCAGUGTT against 4930583K01Rik,inactive: 0.992
24,CCACAUCAAGCAGAAAGUCTT against MGC118309,inactive: 0.258
25,GGGAUAAAUAUGAAGAAAGTT against Tacc2,inactive: 0.0585
26,GCAGUGUUUAGAGAGUUAUTT against Ngep,inactive: 0.423
27,GGCCAUUAACCAGUCUAUCTT against Mucdhl,inactive: -1.75

# Six records drawn at random from the list so far, as already listed:
row,Sequence,z-score
17,GGCCAUCCGCAUUUUUUCCTT against Rkhd3,inactive: 0.51
13,GGAUAUUAUGUCUUUGCUATT against 2810417D08Rik,inactive: -1.53
26,GCAGUGUUUAGAGAGUUAUTT against Ngep,inactive: 0.423
16,GGGAGCCAUUUUUACAGACTT against Gpr120,inactive: -0.477
8,GGAAAUGAGAGCAUCCAUUTT against Cndp2,inactive: 0.189
22,GGAACAGAAAUUCUAUGAGTT against D830007E07Rik,inactive: 0.946

# Remaining list, next part.

row,Sequence,z-score
1,GGAAACUUAAAGUGAAGGATT against Rbm28,inactive: -0.0958
2,CCAUUGAGGCUACGAAAGCTT against Nefl,inactive: 0.543
3,GGAUUGUCAGAGAAAGAGATT against Syt3,inactive: -0.0374
4,GGAAUCAUCAGGUUCAUCATT against Fpr1,inactive: 3.22
5,GGAUCUCGAAAGAACUGAUTT against 4833427G06Rik,inactive: -1.98
6,GGAGAUACUGAAAGAGGCCTT against 1110035L05Rik,inactive: -1.03
7,UGUAUCUUUCUGUAGUUCUTT against Taar7e,inactive: 0.173
8,GGGAAUUUGCUCCUGAAAGTT against Pcdhb6,inactive: -0.55
9,GGAAAGCACAGACAACAUATT against Rfxap,inactive: 0.346
10,GGACAAGCAGUGGCUAUUUTT against Arhgef19,inactive: -3.37
11,GGAUCAUCUCAAGUCUUACTT against F7,inactive: -1.91
12,GGUCAUCACGAUUGUUUUGTT against Cyp1a1,inactive: 0.828
13,GGUUGUAAACCACGUGGACTT against Adam8,inactive: 1.1
14,GUGGACUCCAAGCUACAAATT against Olfr1047,inactive: 0.701
15,GGACCAGCUAAAUAUUAGUTT against Rgs2,inactive: 1.07
16,GGCAGUGGAGUUAACAACATT against Dsg1b,inactive: 0.68
17,GAUAUCUUUAGCAAUGACATT against Olfr159,inactive: -0.194
18,GCUGUAUCGGGUUAAUGACTT against Cpne7,inactive: 1.11
19,CCUUUCUAGGUGACUACUUTT against Pemt,inactive: -1.4
20,GGCCCAAUGUCACUCACUATT against Sirt3,inactive: -2.19
21,UUUCAAUCUGUAGCUUUCCTT against Krt2-10,inactive: -0.436
22,GCUGUCUCUACGUUGGAGATT against Adamts2,inactive: 0.746
23,GGAACAACGGAAAAGCGAGTT against Ankrd1,inactive: -0.333
24,CCGAUGUCGCUGUAAUUGGTT against BC021611,inactive: -0.292
25,CCUGCGUCUCCAGUAGUUUTT against Reps1,inactive: 0.136
26,GGGACCUGAUUGUUGUUUATT against Bcap31,inactive: 0.78
27,GGCAACGAGAGUCCAUUUCTT against MGC74379,inactive: 0.241

# Another view of part of the listing above:
row | Sequence | z-score
4 | GGAAUCAUCAGGUUCAUCATT against Fpr1 | inactive: 3.22
5 | GGAUCUCGAAAGAACUGAUTT against 4833427G06Rik | inactive: -1.98

# The listing continues:

row,Sequence,z-score
1,GGUACCAGAGGAUUCUGAUTT against Pcdhga8,inactive: 0.265
2,GGGACUUCAUCCUCAUUUCTT against Smcr8,inactive: -2.45
3,GGCAUGUGUGCCUAAAACCTT against Sprr4,inactive: 0.27
4,GGUAGAGCAGAAUUGAAAATT against Bmx,inactive: 0.733
5,GGGACAGUGGACCAUUAUGTT against Rnf8,inactive: -1.55
6,GGUCUACAUGUUCAAGUGUTT against Laptm5,inactive: 0.0886
7,GCAGCUUCAAGAGAGCCAUTT against Rhbdl,inactive: -0.961
8,GGUUGGACAGUAAGAUUCATT against A630090P18,inactive: 0.828
9,GGACAUUUUUGACAUCAUATT against Tubg1,inactive: -1.1
10,GGUUGGUGGUGCAGAUAGATT against Krt1-1,inactive: 0.667
11,GGCUGAGAUCAAGAGGAUCTT against Ap2a1,inactive: 1.43
12,GGCAAAGAAGGAUUCCUGCTT against Bapx1,inactive: 0.791
13,GGAGAAGUCUGGCAUCAUATT against Mapkapk5,inactive: -0.909
14,GAACUUUGCCAUUGAUUUGTT against Ndufs6,inactive: 1.03
15,GGCUGAACCUCAAGGUCAUTT against Chst1,inactive: 0.512
16,GGUGUGCCUUUUCAAGAAATT against Hebp2,inactive: -0.958
17,GCUAGUCACCAUUCUGAUUTT against Olfr141,inactive: -0.177
18,CCAGAGGUUAUUCAUUCAATT against 2810421I24Rik,inactive: 0.506
19,GGGAUCAGAAAAGUUAACATT against Acaca,inactive: 0.643
20,AAAGUUCGCCGUCUCUGGGTT against Olfr426,inactive: 1.87
21,GGUUCAAGGAUGAAUUAGATT against Trappc6b,inactive: 0.161
22,CCCAUGAUCUGGAAGAGACTT against Il1a,inactive: 2.68
23,GCCUGAUGUUGUUUCCAAATT against Lias,inactive: -1.14
24,GGGCUUUCCUCAAGGUAGUTT against Olfr62,inactive: 0.408
25,GGCUUACUUGAAGCAUUUATT against Plcb4,inactive: -1.2
26,CGCACCUGUAACUUAUCAGTT against Rac1,inactive: 0.957
27,CGAGUUAAGUAACAGGACATT against BC025076,inactive: -0.237

row,Sequence,z-score
1,GGCCAAAUUUGGGUUUGGATT against 9330164H19Rik,inactive: -1.46
2,CCGUGAUCUUAAACCCUCUTT against Mapk7,inactive: -1.22
3,GGGAUCCGAAUUCUGACCATT against 2010305C02Rik,inactive: 1.23
4,GGAGGUUCCUUCUUCAUCUTT against 2310002J15Rik,inactive: 0.13
5,GGUCGCCUACAAAAAAAAATT against Fthfd,inactive: 0.435
6,GGUUGACUCUACAAAAUACTT against Muc5b,inactive: -0.795
7,GCGAUGUGAGCAAAUGCCUTT against Twsg1,inactive: 0.744
8,GGAAUUAGUCUAGAAAACGTT against D3Ertd250e,inactive: -0.744
9,GCAAUCGUCAAAAAGAAUCTT against 3110057O12Rik,inactive: 1.57
10,GGAAAAGGUGACCUGUCUCTT against AW547365,inactive: -2.42
11,GGAAGAAGAUAAAGAGCGGTT against Nrgn,inactive: 0.287
12,CCAUGUGCGAUGUCACCAUTT against 7030401O21Rik,inactive: -0.456
13,CCUUUCAAGGAAAUGAUCCTT against Lgr7,inactive: 0.143
14,GGCAGAAGGCCAGUGGAUUTT against Cecr6,inactive: 0.376
15,GGAUGUUACUUAAUGACUATT against 6720480D16Rik,inactive: -0.676
16,GGCGAGAUCCUUCAAGCCUTT against Wdr6,inactive: 0.556
17,CCUAACUGGGAUCGUAUUATT against Ixl,inactive: 0.819
18,GCAAAGGAUUUGACUUCUATT against 4921511C04Rik,inactive: -0.66
19,GCCAUCACGAGCUAAAACCTT against Smad5,inactive: 0.428
20,CCCACCACAGUAAAGGAACTT against Rwdd3,inactive: 0.0172
21,GUGUCUGCUACCAUCGAAATT against BC008155,inactive: 1.88
22,GCUAUCUAGAGCCAAGAGCTT against BC060615,inactive: 0.296
23,GGAGAAGAAUUAAAUGGAGTT against Pem,inactive: 0.6
24,GGUACGGUAUGGAGAUCGGTT against Atpaf2,inactive: 0.0979
